The test has as its target Srs2 fused with the DNA binding domain of Gal4 (yeast) (UniProt P12954). The experiment in a line: two-hybrid.

Amino acid sequences for entries named in this document (tags omitted).
UniProt P12954: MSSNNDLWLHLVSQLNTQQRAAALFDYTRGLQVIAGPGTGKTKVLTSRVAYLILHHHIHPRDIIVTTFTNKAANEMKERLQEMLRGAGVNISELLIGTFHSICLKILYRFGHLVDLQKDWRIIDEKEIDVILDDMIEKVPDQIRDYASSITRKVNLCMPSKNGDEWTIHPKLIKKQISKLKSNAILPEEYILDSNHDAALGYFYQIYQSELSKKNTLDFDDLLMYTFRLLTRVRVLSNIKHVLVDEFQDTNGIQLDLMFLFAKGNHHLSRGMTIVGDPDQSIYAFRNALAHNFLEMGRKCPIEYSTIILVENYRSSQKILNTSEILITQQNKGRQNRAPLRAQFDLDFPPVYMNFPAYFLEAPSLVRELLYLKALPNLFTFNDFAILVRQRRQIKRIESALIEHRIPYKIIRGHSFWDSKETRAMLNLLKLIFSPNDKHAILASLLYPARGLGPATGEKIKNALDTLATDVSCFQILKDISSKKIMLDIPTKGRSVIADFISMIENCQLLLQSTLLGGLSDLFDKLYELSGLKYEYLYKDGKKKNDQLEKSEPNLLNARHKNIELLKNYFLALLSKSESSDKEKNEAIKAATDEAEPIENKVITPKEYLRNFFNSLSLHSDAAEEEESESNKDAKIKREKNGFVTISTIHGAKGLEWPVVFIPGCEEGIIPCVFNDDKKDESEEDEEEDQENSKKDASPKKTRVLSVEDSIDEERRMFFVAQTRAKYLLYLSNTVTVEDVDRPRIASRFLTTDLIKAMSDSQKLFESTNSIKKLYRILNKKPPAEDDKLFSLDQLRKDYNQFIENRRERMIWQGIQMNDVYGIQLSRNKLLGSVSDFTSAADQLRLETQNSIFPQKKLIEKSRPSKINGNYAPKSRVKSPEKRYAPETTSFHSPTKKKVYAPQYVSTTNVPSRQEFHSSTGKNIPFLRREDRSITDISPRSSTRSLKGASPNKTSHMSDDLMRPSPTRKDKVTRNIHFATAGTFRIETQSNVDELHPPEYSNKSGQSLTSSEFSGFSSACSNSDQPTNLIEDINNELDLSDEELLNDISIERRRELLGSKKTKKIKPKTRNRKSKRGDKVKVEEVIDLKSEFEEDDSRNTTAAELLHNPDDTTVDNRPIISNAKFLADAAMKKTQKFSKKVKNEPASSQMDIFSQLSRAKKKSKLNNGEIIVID
UniProt P25454: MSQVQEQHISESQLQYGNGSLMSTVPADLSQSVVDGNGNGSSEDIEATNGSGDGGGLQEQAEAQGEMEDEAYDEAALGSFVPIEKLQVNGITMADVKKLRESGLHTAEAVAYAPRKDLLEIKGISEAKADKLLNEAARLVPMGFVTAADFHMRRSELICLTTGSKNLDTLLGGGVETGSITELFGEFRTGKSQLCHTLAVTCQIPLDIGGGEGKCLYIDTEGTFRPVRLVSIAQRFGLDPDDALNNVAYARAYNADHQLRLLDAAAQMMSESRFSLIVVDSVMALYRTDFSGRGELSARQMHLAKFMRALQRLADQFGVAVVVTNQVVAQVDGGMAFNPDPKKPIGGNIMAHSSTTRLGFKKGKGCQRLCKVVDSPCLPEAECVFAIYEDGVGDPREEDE

Binding data for 1 substance are collected here from paper doi:10.1101/2020.03.24.006932.

These are yes or no findings as the source states them, for the method shown. Some results given as binding are weak or reduced against the parent protein; the word gives no strength.

For the substance “Rad51 fused with the transcription activating domain of Gal4 (from UniProt P25454 1-400)”, the binding entry was “binds”.
